The list shows a part of the results. Further columns of the screen follow, without active or inactive calls. Most of these compounds were active or inconclusive in the main read-out, so they are no random draw. The note in brackets gives the kind of curve behind each potency; many fits are weak.
Assay: qHTS Assay to Find Inhibitors of Chronic Active B-Cell Receptor Signaling
Conditions: ABC-DLBCL IkBa-CBG/CBR reporter, luminescence ratio (green luciferase fused to IkBa over red control in TMD8 lymphoma cells), 4 h
Outline: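 Concentration-response series (up to 46 uM) were applied to TMD8 dual-reporter cells for 4 h at 37C with doxycycline. Green/red ratio, after filter-overlap correction, defined %Activity; red signal alone was normalised to basal cells and zero luminescence.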

[1] = measured here: CBR red luminescence, cell number
[2] = measured here: IkBa-CBG green luminescence

COc1ccc(/C(O)=C2/C(=O)C(=O)N(Cc3cccnc3)C2c2ccncc2)cc1F (stereo not drawn)
AC50 [1]: 2.31 µM [rising, full curve, poor fit]

Cc1cccc(Cl)c1NC(=S)N1CCN(c2ccc([N+](=O)[O-])cn2)CC1
AC50 [1]: 7.94 µM [falling, partial curve, poor fit]

Cc1ccc(-n2c(Cc3cccs3)nnc2SCC(=O)Nc2ccc(S(N)(=O)=O)cc2)cc1
AC50 [1]: 8.91 µM [falling, partial curve, poor fit]

O=C(Nc1ccc(F)cc1)Nc1ccc(NC(=O)c2ccccc2O)cc1
AC50 [1]: 0.1 µM [rising, full curve, poor fit]

COc1ccc(/C=C2\Sc3ccc(C(=O)NCC4CCCO4)cc3N(C)C2=O)cc1 (stereo not drawn)
AC50 [1]: 20 µM [rising, single point]

COC(=O)CC1(C(=O)OC)Oc2ccc(Br)cc2C(=O)N1c1cccc(Cl)c1Cl (stereo not drawn)
AC50 [1]: 20 µM [falling, single point]

CC(Sc1nc2scc(-c3ccccc3)c2c(=O)[nH]1)C(=O)NC(N)=O (stereo not drawn)
AC50 [1]: 1.78 µM [falling, full curve]

COc1ccc(Nc2ccc3c(c2)=NC2(CCCCC2)[N+]=3[O-])cc1
AC50 [1]: 2 µM [falling, full curve]

O=C(Nc1ccccc1C(=O)Nc1ccccc1)c1ccco1
AC50 [1]: 0.708 µM [falling, full curve, poor fit]

CC(C)NC(=O)c1ccc(-c2ccccc2C(F)(F)F)o1
AC50 [1]: 2.91 µM [rising, single point]

COc1cc2c(cc1OC)C(COc1ccc(F)cc1)N(C(C)=O)CC2 (stereo not drawn)
AC50 [1]: 35.5 µM [falling, single point]

CCCCCCCCCCOC(=O)Cn1c(COc2ccccc2)[n+](C)c2ccccc21
AC50 [1]: 25.1 µM [falling, single point]

COC(=O)c1c(-c2ccccc2)csc1NC(=O)c1c(-c2ccccc2)noc1C
AC50 [1]: 0.00411 µM [falling, full curve, poor fit]

Cc1cccc(NC(=O)CSc2nc3[nH]ncc3c(=O)[nH]2)c1
AC50 [1]: 10.3 µM [falling, partial curve]

Cc1[nH]c2c(C)cccc2c(=O)c1Br
AC50 [1]: 3.66 µM [falling, partial curve] | AC50 [2]: 2.31 µM [rising, partial curve, poor fit]

CN(CCC#N)C(=O)CSc1ncnc2sc(-c3ccccc3)cc12
AC50 [1]: 20 µM [falling, single point]

CCC(=O)Nc1nc(-c2ccc3c(c2)CC(C)N3S(C)(=O)=O)cs1 (stereo not drawn)
AC50 [1]: 11.2 µM [rising, partial curve, poor fit]

CCOC(=O)Cc1nnc(Nc2ccc(C(=O)NC)cc2)c2ccccc12
AC50 [1]: 6.31 µM [falling, partial curve]

COc1c(O)cc2oc(-c3ccc(O)c(O)c3)cc(=O)c2c1O
AC50 [1]: 8.91 µM [falling, partial curve, poor fit]

COc1ccc(NC(=S)NCCN2CCC(C)CC2)cc1Cl
AC50 [1]: 35.5 µM [falling, single point]

CCOc1cc(S(=O)(=O)NCc2ccccn2)ccc1Cl
AC50 [1]: 0.103 µM [falling, full curve, poor fit]

Cc1ccc(S(=O)(=O)Oc2cccc(/C=N/Nc3ccc(C(=O)O)cc3)c2)cc1
AC50 [1]: 5.62 µM [falling, partial curve]

O=C(Nc1ccc(Cl)c(Cl)c1)N1CCCCCC1
AC50 [1]: 7.08 µM [falling, full curve]

O=C(CSC(=S)N1CCCC1)Nc1cc2c(cc1Br)OCCO2
AC50 [1]: 17.8 µM [falling, single point]

CC12CCC(=O)N1C(C(=O)OCC(=O)Nc1cc(S(=O)(=O)N3CCCCC3)ccc1Cl)CS2 (stereo not drawn)
AC50 [1]: 23.1 µM [rising, single point]

Cc1cc(C(=O)Nc2ccc([N+](=O)[O-])cn2)cs1
AC50 [1]: 14.1 µM [falling, single point]

Cc1cc(C)n(-c2nc(Nc3ccccc3C(F)(F)F)nc(-n3nc(C)cc3C)n2)n1
AC50 [1]: 18.4 µM [falling, partial curve] | AC50 [2]: 18.4 µM [rising, partial curve]

Cc1ccc2c(c1)c1nnc(SCC(=O)Nc3ccccc3C(F)(F)F)nc1n2CC(=O)O
AC50 [1]: 22.4 µM [falling, single point]

O=C(Nc1ccccc1)Nc1ccno1
AC50 [1]: 31.6 µM [falling, single point]

Cc1onc(-c2ccccc2)c1C(=O)Nc1nnc(-c2ccncc2)s1
AC50 [1]: 23.1 µM [falling, single point]

CCCCN(C(=O)c1cc(OC)c(OC)c(OC)c1)C1=CC2CCC(C1)N2C (stereo not drawn)
AC50 [1]: 11.2 µM [rising, partial curve, poor fit]

C=CCn1c(SCc2ccc(Cl)c(Cl)c2)nnc1C(CO)NC(=O)c1ccc(OC)cc1 (stereo not drawn)
AC50 [1]: 2.06 µM [rising, partial curve, poor fit]

Cc1cc(C)c(S(=O)(=O)N2CCN=C2c2ccccc2)c(C)c1
AC50 [1]: 0.731 µM [rising, full curve, poor fit]

O=C(NN=C1CCCC1)c1cccc(Br)c1
AC50 [1]: 17.8 µM [falling, single point]

NC(=O)c1ccccc1N/C=C/C(=O)c1ccco1
AC50 [1]: 5.17 µM [falling, full curve] | AC50 [2]: 3.66 µM [rising, partial curve, poor fit]

COc1ccc(-c2noc(-c3ccc(Br)o3)n2)cc1OC
AC50 [1]: 1.64 µM [rising, partial curve, poor fit]

CCNc1cc(O)ccc1C
AC50 [1]: 11.6 µM [falling, single point]

COc1cccc(NC(=O)CNC(=O)c2ccccc2)c1
AC50 [1]: 0.231 µM [rising, full curve, poor fit]

COc1ccc(NC(=O)C2CCN(C(=O)C3CC(=O)N(c4ccc(C)cc4)C3)CC2)cc1 (stereo not drawn)
AC50 [1]: 35.5 µM [rising, partial curve, poor fit]

CC1CCc2c(sc(Nc3nc4c(F)cccc4s3)c2C(N)=O)C1 (stereo not drawn)
AC50 [1]: 29.1 µM [falling, single point]
